Drawing on PMC8024722, this text covers binding for two substances.

The chains behind the UniProt entries cited, without tags or fusion partners. Where a name states a change or a piece, a line headed by the entry shows the natural chain unless it says otherwise. Residues count along the entry.
UniProt Q92754: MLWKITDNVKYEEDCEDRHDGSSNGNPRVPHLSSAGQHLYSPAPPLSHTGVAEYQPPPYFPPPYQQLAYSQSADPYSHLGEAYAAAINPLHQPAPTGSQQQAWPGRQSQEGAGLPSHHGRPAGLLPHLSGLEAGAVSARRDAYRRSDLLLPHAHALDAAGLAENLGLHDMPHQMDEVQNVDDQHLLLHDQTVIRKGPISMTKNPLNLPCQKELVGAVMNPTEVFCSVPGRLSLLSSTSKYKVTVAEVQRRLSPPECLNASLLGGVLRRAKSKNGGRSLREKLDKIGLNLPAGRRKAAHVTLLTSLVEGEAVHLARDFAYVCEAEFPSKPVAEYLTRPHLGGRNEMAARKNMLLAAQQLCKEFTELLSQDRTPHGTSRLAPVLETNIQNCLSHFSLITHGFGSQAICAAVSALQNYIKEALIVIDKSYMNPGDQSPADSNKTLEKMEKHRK
UniProt Q8IZL8: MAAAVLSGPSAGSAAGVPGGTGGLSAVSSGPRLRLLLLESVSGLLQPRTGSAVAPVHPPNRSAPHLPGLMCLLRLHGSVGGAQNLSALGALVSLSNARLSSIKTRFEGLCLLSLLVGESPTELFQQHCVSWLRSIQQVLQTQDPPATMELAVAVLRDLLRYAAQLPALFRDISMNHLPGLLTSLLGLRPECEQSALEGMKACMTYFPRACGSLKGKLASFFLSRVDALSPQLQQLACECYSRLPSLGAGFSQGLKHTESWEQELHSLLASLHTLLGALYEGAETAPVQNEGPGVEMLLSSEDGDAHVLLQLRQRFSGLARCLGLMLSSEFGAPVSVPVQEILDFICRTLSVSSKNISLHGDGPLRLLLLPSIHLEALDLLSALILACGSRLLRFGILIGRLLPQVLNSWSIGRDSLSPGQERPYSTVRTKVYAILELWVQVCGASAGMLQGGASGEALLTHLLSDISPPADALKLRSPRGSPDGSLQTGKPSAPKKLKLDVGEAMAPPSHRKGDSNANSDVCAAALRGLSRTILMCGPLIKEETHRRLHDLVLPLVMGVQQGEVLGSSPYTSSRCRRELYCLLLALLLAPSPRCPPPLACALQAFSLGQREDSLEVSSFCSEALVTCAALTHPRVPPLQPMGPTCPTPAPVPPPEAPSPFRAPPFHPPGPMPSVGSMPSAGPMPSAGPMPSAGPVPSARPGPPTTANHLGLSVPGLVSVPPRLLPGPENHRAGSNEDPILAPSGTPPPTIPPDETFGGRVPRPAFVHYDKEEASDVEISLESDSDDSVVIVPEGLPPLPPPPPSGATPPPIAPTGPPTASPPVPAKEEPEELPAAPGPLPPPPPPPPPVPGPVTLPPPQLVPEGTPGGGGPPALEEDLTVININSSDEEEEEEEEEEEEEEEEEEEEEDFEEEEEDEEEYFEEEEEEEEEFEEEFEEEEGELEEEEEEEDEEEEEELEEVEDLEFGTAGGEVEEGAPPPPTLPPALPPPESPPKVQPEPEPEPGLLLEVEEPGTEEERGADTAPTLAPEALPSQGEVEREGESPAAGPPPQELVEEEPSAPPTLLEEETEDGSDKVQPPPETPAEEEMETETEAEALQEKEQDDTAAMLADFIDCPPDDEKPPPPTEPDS
GST‐PELP1 deletion containing 401–600 aa: residues 401-600 of Q8IZL8

In experiment [1] the target is Transcription factor AP‐2 gamma (TFAP2C), endogenous (human (endogenous in MCF7 and ZR75)) (UniProt Q92754). As to the kind of experiment: co-IP; total lysates of MCF7 (legend: MCF7 and ZR75) cells, precleared with protein A beads, IP with TFAP2C antibody or control IgG, western blot for PELP1. A general note: A western blot detects proteins with antibodies after separation by electrophoresis.

Experiment [2] has as its target GFP epitope tagged PELP1 (GFP‐PELP1) (UniProt Q8IZL8). Description: co-IP; total lysates of MCF7-GFP-PELP1 or ZR75-GFP-PELP1 cells (and control cells), precleared with protein A beads, IP with GFP-TRAP beads, western blot for TFAP2C.
Experiment [3] addresses GST‐PELP1 deletion containing 401–600 aa (UniProt Q8IZL8). Description: pull-down; MCF7 total lysates incubated with E. coli expressed, purified GST-PELP1 full length or GST-PELP1 deletions (control GST); bound TFAP2C detected by western blot; only the target purified.
Another experiment concerns the target GST‐PELP1 full length (UniProt Q8IZL8). The experiment is described as above.

No constants are given. Whether binding was seen depends on the method and setting. In cells and extracts the contact can be indirect. Some entries that bind do so weakly or less than the wild type.

For the substance “Proline‐, glutamic acid‐, and leucine‐rich protein 1 (PELP1), endogenous (from UniProt Q8IZL8 1-1130)”, in experiment [1], the binding entry is “binds”.

For the substance “Transcription factor AP‐2 gamma (TFAP2C), endogenous (from UniProt Q92754 1-450)”, the binding entry (in experiment [2]; in experiment [3]; in the experiment with GST‐PELP1 full length) was “binds” in each case.
